{"sequences": {"note": "Sequences of proteins named here, by UniProt entry; tags and fusion partners are left off.", "UniProt Q8CIR4": "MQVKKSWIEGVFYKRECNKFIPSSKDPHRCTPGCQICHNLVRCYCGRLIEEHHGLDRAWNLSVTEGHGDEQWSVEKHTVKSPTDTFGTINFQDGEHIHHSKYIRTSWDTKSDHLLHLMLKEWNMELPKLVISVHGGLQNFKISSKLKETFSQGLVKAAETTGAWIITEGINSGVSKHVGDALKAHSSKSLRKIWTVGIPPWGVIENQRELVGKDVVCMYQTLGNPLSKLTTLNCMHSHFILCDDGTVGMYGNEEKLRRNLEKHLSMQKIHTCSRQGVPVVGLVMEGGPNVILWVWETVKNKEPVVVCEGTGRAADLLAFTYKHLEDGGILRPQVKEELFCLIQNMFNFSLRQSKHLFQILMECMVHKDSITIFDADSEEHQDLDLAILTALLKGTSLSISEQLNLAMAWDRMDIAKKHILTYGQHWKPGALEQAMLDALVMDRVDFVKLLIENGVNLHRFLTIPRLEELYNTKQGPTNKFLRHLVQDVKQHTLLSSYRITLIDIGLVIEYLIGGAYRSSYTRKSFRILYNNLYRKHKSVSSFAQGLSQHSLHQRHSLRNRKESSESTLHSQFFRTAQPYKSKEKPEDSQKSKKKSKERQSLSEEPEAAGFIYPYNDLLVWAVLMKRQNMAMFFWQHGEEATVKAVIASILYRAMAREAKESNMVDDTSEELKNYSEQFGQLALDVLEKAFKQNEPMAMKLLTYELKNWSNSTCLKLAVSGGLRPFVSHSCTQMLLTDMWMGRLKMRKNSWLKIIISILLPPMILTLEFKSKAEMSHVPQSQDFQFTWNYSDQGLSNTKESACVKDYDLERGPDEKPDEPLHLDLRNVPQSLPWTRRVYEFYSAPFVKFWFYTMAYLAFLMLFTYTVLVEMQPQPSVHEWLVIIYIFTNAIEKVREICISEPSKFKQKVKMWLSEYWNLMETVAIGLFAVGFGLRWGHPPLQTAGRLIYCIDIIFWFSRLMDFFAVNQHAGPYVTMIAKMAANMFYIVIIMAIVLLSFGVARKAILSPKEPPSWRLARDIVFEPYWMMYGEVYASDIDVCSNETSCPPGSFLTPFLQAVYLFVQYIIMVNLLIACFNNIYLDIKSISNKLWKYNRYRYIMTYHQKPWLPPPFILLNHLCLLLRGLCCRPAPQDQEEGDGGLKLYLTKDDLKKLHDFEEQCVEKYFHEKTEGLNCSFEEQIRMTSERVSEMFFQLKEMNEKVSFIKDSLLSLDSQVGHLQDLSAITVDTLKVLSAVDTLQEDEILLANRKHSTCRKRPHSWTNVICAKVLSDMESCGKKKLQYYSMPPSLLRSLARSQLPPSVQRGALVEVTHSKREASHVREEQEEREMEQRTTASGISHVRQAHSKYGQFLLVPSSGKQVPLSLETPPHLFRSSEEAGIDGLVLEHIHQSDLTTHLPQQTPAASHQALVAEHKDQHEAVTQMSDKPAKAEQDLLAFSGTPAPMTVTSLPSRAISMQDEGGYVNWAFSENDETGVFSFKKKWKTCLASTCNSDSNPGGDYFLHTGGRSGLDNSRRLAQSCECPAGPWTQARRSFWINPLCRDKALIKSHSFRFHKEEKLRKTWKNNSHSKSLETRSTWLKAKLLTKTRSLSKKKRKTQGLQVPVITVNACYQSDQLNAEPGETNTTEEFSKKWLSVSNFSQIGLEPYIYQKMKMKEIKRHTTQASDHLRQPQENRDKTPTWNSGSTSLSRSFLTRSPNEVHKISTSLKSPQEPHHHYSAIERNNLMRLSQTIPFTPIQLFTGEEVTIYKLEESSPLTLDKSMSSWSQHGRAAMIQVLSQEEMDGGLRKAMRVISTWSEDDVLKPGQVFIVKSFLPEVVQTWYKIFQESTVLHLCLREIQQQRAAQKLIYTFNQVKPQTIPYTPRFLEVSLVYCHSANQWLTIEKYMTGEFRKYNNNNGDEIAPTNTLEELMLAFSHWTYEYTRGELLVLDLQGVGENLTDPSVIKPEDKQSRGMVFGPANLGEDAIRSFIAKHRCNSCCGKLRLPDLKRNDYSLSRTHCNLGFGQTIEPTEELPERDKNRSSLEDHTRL", "UniProt Q923J1": "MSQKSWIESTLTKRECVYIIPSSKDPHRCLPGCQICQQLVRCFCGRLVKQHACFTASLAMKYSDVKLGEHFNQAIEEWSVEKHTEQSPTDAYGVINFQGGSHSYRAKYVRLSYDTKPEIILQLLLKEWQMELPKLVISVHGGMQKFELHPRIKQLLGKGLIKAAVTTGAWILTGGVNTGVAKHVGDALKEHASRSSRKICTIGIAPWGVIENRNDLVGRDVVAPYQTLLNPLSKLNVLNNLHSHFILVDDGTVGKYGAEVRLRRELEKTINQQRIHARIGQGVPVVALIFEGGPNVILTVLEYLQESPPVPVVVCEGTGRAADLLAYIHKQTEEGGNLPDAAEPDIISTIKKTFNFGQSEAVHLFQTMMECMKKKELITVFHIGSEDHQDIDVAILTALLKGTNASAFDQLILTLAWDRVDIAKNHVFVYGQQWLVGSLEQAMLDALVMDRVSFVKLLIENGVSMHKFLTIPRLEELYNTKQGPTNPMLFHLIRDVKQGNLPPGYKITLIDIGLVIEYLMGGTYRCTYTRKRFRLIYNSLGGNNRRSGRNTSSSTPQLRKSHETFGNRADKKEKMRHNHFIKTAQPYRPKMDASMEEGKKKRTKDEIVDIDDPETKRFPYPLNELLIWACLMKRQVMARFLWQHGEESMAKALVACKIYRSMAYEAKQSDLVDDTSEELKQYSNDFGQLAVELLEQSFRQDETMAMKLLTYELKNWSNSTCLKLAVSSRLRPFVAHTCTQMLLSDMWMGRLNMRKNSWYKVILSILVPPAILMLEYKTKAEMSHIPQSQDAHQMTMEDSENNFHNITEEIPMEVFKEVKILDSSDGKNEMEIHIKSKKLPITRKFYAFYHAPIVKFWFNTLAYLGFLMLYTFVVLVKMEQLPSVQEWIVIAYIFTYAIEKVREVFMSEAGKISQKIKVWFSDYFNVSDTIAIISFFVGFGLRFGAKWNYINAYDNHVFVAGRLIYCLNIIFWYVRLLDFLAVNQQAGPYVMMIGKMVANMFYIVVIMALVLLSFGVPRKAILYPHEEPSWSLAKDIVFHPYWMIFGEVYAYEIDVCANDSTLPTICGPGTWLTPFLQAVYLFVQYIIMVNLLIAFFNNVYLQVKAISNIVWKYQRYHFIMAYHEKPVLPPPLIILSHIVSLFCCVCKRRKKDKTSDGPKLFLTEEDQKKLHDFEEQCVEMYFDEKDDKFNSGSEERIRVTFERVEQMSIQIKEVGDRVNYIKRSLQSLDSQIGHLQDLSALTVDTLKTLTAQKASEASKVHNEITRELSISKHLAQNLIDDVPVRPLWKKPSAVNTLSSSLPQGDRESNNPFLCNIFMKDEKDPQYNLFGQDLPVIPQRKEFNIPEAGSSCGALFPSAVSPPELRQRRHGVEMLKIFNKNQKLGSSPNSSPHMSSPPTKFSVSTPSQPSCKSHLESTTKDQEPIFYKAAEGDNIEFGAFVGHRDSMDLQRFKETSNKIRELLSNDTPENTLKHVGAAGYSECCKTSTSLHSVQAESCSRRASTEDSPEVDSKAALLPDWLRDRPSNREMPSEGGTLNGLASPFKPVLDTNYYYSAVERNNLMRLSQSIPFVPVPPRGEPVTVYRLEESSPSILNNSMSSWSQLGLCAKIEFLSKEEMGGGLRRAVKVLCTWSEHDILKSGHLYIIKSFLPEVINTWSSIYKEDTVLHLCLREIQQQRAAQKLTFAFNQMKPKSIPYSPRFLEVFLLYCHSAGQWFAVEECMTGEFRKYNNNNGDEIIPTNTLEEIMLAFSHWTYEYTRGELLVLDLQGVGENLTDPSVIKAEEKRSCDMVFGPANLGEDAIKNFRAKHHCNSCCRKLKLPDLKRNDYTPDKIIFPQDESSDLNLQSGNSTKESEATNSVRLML", "UniProt P11142": "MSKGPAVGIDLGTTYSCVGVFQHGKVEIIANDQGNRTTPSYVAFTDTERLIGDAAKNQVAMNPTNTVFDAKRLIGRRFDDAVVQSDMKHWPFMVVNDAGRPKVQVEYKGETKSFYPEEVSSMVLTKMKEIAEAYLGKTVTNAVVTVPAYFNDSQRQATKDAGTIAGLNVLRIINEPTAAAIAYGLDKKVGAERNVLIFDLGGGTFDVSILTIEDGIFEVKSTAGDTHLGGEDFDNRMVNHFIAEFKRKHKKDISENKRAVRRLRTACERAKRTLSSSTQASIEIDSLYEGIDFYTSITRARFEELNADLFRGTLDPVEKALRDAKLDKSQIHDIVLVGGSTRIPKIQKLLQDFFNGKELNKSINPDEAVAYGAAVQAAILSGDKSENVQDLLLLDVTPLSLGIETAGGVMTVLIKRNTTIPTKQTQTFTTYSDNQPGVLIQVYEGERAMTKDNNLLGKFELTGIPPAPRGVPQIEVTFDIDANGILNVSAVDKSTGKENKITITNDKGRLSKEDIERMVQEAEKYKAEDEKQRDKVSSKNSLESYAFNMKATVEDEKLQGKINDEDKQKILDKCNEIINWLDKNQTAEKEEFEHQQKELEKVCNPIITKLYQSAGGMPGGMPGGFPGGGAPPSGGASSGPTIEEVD"}, "source": "paper PMC5826258", "key": {"[1]": {"target": "HA-tagged TRPM6 (mouse, full length, canonical splice form) (mouse) (UniProt Q8CIR4)", "test": "affinity purification with mass spectrometry; larger scale immunoprecipitation with anti-HA agarose from HEK cells co-expressing TRPM6, TRPM7 and PCDH15; eluates by shotgun tandem mass spectrometry (Thermo Velos ion trap)"}, "[2]": {"target": "HA-tagged TRPM7 (mouse, full length, canonical splice form) (mouse) (UniProt Q923J1)", "test": "affinity purification with mass spectrometry; larger scale immunoprecipitation with anti-HA agarose from HEK cells co-expressing TRPM6, TRPM7 and PCDH15; eluates by shotgun tandem mass spectrometry (Thermo Velos ion trap)"}}, "note": "Results are given in words; binding and its absence hold for the method and conditions named. Binding seen in cells or lysates may run through a third protein. These calls come from enrichment with a bait or labelling near it, and not all partners need be listed."}
{"substance": "human heat shock protein cognate 71 (from UniProt P11142 1-646)", "values": [{"measurement": "binding", "setting": "[1]", "value": "binds"}, {"measurement": "binding", "setting": "[2]", "value": "binds"}]}
